No constants are given. Whether binding was seen depends on the method and setting. Some entries that bind do so weakly or less than the wild type.
Assays:
[1] = molecular target: basic fibroblast growth factor (bFGF) (UniProt P09038); assay: bFGF ELISA of culture supernatants from bFGF-treated RCP-1 wells (bFGF not detected)
[2] = molecular target: basic fibroblast growth factor (bFGF) (UniProt P09038); assay: Human iPS cell culture on bFGF-treated RCP-1 wells in bFGF-free medium (inferred from proliferation)
[3] = molecular target: basic fibroblast growth factor (bFGF) (UniProt P09038); assay: RCP-1 mixed with Essential 8 medium (bFGF 100 ng/mL), 37 C for 24 h, remaining bFGF determined by ELISA
[4] = molecular target: basic fibroblast growth factor (bFGF) (UniProt P09038); assay: Plate coated with RCP-1, bFGF solutions 37 C for 24 h, bound bFGF detected with a bFGF ELISA kit (absorbance 450 nm)

Protein sequences, listed by entry. Tags and fused reporters are not part of them. Lines headed by an entry give the natural chain unless they say otherwise; changes in a name come on top. Residues count along the entry.
UniProt P09038, residues 135-288: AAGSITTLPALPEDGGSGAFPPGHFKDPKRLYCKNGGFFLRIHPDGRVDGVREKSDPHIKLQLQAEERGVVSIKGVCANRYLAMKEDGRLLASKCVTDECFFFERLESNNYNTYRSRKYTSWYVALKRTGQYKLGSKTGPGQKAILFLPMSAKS
UniProt P04004: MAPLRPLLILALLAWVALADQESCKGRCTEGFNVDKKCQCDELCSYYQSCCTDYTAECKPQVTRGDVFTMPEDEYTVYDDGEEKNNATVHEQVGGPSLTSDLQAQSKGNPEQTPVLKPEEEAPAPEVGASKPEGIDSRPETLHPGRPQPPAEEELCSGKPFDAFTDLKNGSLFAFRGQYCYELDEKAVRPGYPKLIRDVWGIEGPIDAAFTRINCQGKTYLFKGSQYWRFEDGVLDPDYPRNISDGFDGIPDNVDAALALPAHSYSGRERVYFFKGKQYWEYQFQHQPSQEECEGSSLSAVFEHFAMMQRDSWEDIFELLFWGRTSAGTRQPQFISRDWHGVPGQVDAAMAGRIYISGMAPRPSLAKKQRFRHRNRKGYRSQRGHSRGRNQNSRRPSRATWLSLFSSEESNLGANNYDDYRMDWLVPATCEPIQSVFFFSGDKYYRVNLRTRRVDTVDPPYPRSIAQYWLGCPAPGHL

Measured: binding

RCP-1 (polypeptide consisting of the amino acid sequence represented by SEQ ID No: 16) (from UniProt P04004 20-392)
binds: all assays above

From patent US20180208902A1
